Assay results: PubChem BioAssay AID2685 (National Center for Advancing Translational Sciences (NCATS), 2010)
Among all 320,000 compounds or so, about 2,100 (0.66%) were called active. This list was built around the results that the source calls inconclusive (neither active nor inactive); the mix of calls is not that of the screen. The call rests on the fitted dose curve; in most records, active means well fitted inhibition curve with a large enough effect in the signal ratio, with a control signal flat (not every such curve was filed as active); inconclusive means small, poorly fitted or top-dose-only effect, or effect the other way, or a change in a side signal; inactive means flat fitted curve, though single readings scatter; the % refers to the signal ratio. A potency beside an inconclusive call is a rough fit, not a confirmed value.
On the % scale 0 is the no-effect control and ±100 the full control effect; potency means the concentration at half of the fitted maximal effect.

Assay: qHTS Assay for Lipid Storage Modulators in Drosophila S3 Cells
Conditions: BODIPY lipid droplet fluorescence, 18-24 h, cells fed with added oleic acid; lipid storage change, negative = inhibition: at 46.1 µM (top of the series) unless noted
Method in brief: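 Laser-scanning cytometry quantifies lipid droplet accumulation (500–530 nm total intensity; droplet/cell object ratio) in oleic acid-fed (400 uM added) Drosophila S3 cells treated with a concentration series. 20 uM Triacsin C defined 100% inhibition.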
In the case of `COc1cc(OC)nc(NC(=O)C(C)C)n1`, the lipid storage change, negative = inhibition is reported as inconclusive: -6.49% [at 9.22 µM].
With `C=CCNC(=O)C1CCN(S(C)(=O)=O)CC1` the lipid storage change, negative = inhibition was inconclusive: -0.61%.
For `CCCN(Cc1ccc(C)cc1)C(=O)c1ccc(CNS(=O)(=O)c2ccc(C(C)=O)cc2)cc1`, the Potency was inconclusive: 0.13 µM [falling, full curve, poor fit].
With `COc1cc(NC(=O)C2CCC(CNS(=O)(=O)c3csc(C(N)=O)c3)CC2)cc(OC)c1` (stereo unspecified) the lipid storage change, negative = inhibition was inconclusive: -4.02%.
With `C=CCC(=O)OCCCCCCOc1ccc(C(=O)O)cc1` the lipid storage change, negative = inhibition was inconclusive: -23%.
With `COc1ccc(NC(=O)c2ccc(N(C)S(C)(=O)=O)cc2)cc1OC` the lipid storage change, negative = inhibition was inconclusive: 66.1%.
In the case of `O=C(NCCc1ccco1)c1nn(Cc2ccccc2)c(=O)c2ccccc12`, the Potency is reported as inconclusive: 4.61 µM [falling, single point].
With `Cc1ccc2nc(C)c3c(c2c1)OC(C(C)(Cl)Br)C3` (stereo unspecified) the Potency was inconclusive: 29.1 µM [cytotoxic, single point].
In the case of `Cc1ccc(C(=O)C(C)OC(=O)c2n[nH]c(=O)c3ccccc23)cc1` (stereo unspecified), the lipid storage change, negative = inhibition is reported as inconclusive: -9.78%.
With `CCOC(=O)[C@@H](C)N(Cc1ccc(OC)cc1)S(=O)(=O)N(Cc1ccccc1)[C@H](C(=O)OC)C(C)C` the lipid storage change, negative = inhibition was inconclusive: -79.5%.
For `COc1ccc(CCNC(=O)CN2C(=O)C(=O)N(C3CCCC3)C2=O)cc1OC`, the lipid storage change, negative = inhibition was inconclusive: -12.8%.
With `C/C(=N\NC(=O)c1ccccc1O)C1CC1` the lipid storage change, negative = inhibition was inconclusive: -98.3%.
For `Cc1ccc(CNC(=O)C2CCN(C(=O)Nc3ccc(C)cc3)CC2)cc1`, the Potency was inconclusive: 29.1 µM [activator, single point].
For `CCC(=O)c1ccc(OCC(=O)OCC(=O)N(C)CC(=O)Nc2ccc(F)cc2)cc1`, the lipid storage change, negative = inhibition was inconclusive: 10.8%.
For `CCCn1c(NC(=S)Nc2ccccc2)nc2ccccc21`, the lipid storage change, negative = inhibition was inconclusive: -24.5%.
In the case of `C[C@H](NC(=O)OC(C)(C)C)c1nnc(SCC(=O)c2ccc(Cl)cc2)o1`, the lipid storage change, negative = inhibition is reported as inconclusive: 12.1%.
With `Cc1cccc(NC(=O)CSCC(=O)N2CCN(c3cccc(C(F)(F)F)c3)CC2)c1` the Potency was inconclusive: 9.2 µM [falling, partial curve, poor fit].
In the case of `Cc1ccc(CCSCC(=O)O)cn1`, the lipid storage change, negative = inhibition is reported as inconclusive: -87.7%.
In the case of `CCN1CCN(C(=O)c2ccc(Cn3c(=O)[nH]c4cc(OC)c(OC)cc4c3=O)cc2)CC1`, the lipid storage change, negative = inhibition is reported as inconclusive: -34.9%.
With `S=c1[nH]nc(-c2cc(-c3ccsc3)n[nH]2)n1-c1cccc2ccccc12` the Potency was inconclusive: 0.82 µM [rising, full curve, poor fit].
With `O=C(Cc1cccc(C(F)(F)F)c1)OCN1C(=O)c2ccccc2C1=O` the Potency was inconclusive: 1.16 µM [activator, single point].
With `N#C/C(=C\Nc1ccc(F)c(Cl)c1)S(=O)(=O)c1ccccn1` the lipid storage change, negative = inhibition was inconclusive: -33.8%.
With `COc1ccc(-c2cn3cccc(C)c3n2)cc1Br` the lipid storage change, negative = inhibition was inconclusive: 24.2%.
In the case of `O=C(CSC1=NS(=O)(=O)c2ccccc2N1)NCc1ccc(F)cc1`, the lipid storage change, negative = inhibition is reported as inconclusive: -2.98%.
With `CC(=O)Nc1ccccc1-c1nc2ccccc2nc1OCC(=O)c1ccc2ccccc2c1` the lipid storage change, negative = inhibition was inconclusive: -19.4%.
In the case of `CCN(c1ccccc1)S(=O)(=O)c1ccc2c(c1)N(C(C)=O)CCS2`, the lipid storage change, negative = inhibition is reported as inconclusive: 18%.
For `CCn1c(Sc2ccc(N)cc2Cl)nc2ccccc21`, the Potency was inconclusive: 1.84 µM [activator, partial curve].
For `O=[N+]([O-])c1ccc(O)c(/C=N/NC2=NS(=O)(=O)c3ccccc32)c1`, the lipid storage change, negative = inhibition was inconclusive: 24.2%.
With `O=S(=O)(c1cccc2cccnc12)N1CCCc2ccccc21` the lipid storage change, negative = inhibition was inconclusive: 5.03%.
For `Cn1c(CNc2nc3ccccc3n2CCN2CCCCC2)nc2ccccc21`, the Potency was inconclusive: 18.4 µM [activator, single point].
In the case of `COc1ccccc1-c1c(C(F)(F)F)oc2cc(OS(C)(=O)=O)ccc2c1=O`, the lipid storage change, negative = inhibition is reported as inconclusive: -32.3%.
For `CCOC(=O)N1CCN(c2ncnc3c2oc2nc(C(C)C)c4c(c23)CCC4)CC1`, the lipid storage change, negative = inhibition was inconclusive: 16.6%.
For `CC(=O)CCCC(NS(=O)(=O)CCC(Cl)(Cl)Cl)c1ccccc1` (stereo unspecified), the Potency was inconclusive: 29.1 µM [activator, single point].
For `COc1ccc(S(=O)(=O)N/N=C\c2ccc([N+](=O)[O-])o2)c(OC)c1`, the Potency was inconclusive: 29.1 µM [falling, single point].
In the case of `CCOc1ccc(S(=O)(=O)NC(C)C(=O)NC2CCCC2)cc1` (stereo unspecified), the lipid storage change, negative = inhibition is reported as inconclusive: -1.29%.
In the case of `O=S(=O)(c1ccccc1)C1CON(Cc2ccccc2)C1c1ccccc1` (stereo unspecified), the lipid storage change, negative = inhibition is reported as inconclusive: -1.11%.
In the case of `CC(=O)Nc1ccc(C(=O)Nc2ccc(S(=O)(=O)N3CCOCC3)cc2)cc1`, the Potency is reported as inconclusive: 7.31 µM [activator, partial curve].
With `O=C(CN1C(=O)NC2(CCOc3ccccc32)C1=O)Nc1ccc(Br)cc1F` (stereo unspecified) the lipid storage change, negative = inhibition was inconclusive: 10.3%.
With `NC(=S)Cc1ccccc1Cl` the lipid storage change, negative = inhibition was inconclusive: 2.92%.
For `O=c1[nH]c2ccc(NS(=O)(=O)c3ccc4ccccc4c3)cc2[nH]1`, the lipid storage change, negative = inhibition was inconclusive: 17%.
For `CC(C)Oc1ccc(Nc2ncnc3ccccc23)cc1`, the Potency was inconclusive: 29.1 µM [falling, single point].
With `O=C(Nc1ccccc1C(=O)N/N=C/c1ccco1)c1ccccc1` the lipid storage change, negative = inhibition was inconclusive: 30.8%.
With `CCSc1nnc(NC(=O)CC)s1` the Potency was inconclusive: 0.092 µM [activator, full curve, poor fit].
With `COc1ccc(NS(=O)(=O)c2cccc(C(=O)NCCCn3ccnc3)c2)cc1` the lipid storage change, negative = inhibition was “inconclusive”.
With `CN(CCC1CCOCC1)C(=O)CC1C(=O)NCCN1Cc1cccc(F)c1` (stereo unspecified) the lipid storage change, negative = inhibition was inconclusive: 0.71%.
In the case of `N#Cc1cnn2c(-c3cccc([N+](=O)[O-])c3)ccnc12`, the lipid storage change, negative = inhibition is reported as inconclusive: 15.2%.
In the case of `Cc1noc(C)c1COc1cccc(C(=O)NCc2cccc(Cl)c2)c1`, the lipid storage change, negative = inhibition is reported as inconclusive: 73.8%.
For `Cc1nn(-c2cccc(Cl)c2)c2nc(-c3ccncc3)cc(C(=O)N3CCOCC3)c12`, the Potency was inconclusive: 0.0164 µM [rising, full curve, poor fit].
In the case of `Cc1ccc2c(c1)NC(=O)C(CC(=O)NCCCN1CCc3ccccc3C1)O2` (stereo unspecified), the Potency is reported as inconclusive: 0.116 µM [activator, full curve, poor fit].
For `Clc1ccc2nc(-c3cccc(SC4CCCCC4)c3)c(NCc3ccccc3)n2c1`, the lipid storage change, negative = inhibition was inconclusive: 25.1%.
For `CCN(CC)CCCN1C(=O)C(O)=C(C(=O)c2sc(C)nc2C)C1c1ccco1` (stereo unspecified), the lipid storage change, negative = inhibition was inconclusive: -18.3%.
With `Cc1cc(O)c(/C=N/Nc2ccc(Cl)cc2)c(=O)o1` the lipid storage change, negative = inhibition was inconclusive: -4.19%.
With `O=c1[nH]c(SCc2ccccc2)nc2c1sc1ccccc12` the lipid storage change, negative = inhibition was inconclusive: -15.4%.
For `CSc1cccc(NC(=O)CN(C)S(=O)(=O)c2ccc(C)cc2)c1`, the lipid storage change, negative = inhibition was inconclusive: -8.66%.
For `O=C(N=C1N=C2C=CC=CN2Cc2ccccc21)c1ccc(S(=O)(=O)N2CCCC2)cc1`, the “lipid storage change, negative = inhibition” value was inactive: 16.7%.
For `Cc1ccc(NC(=O)c2ccc(NCC3CCCO3)c([N+](=O)[O-])c2)cc1Cl` (stereo unspecified), the lipid storage change, negative = inhibition was inconclusive: 40.8%.
In the case of `Cc1ccc([N+](=O)[O-])cc1N=Nc1c(-c2ccc([N+](=O)[O-])cc2)[nH]n(C(N)=S)c1=O`, the lipid storage change, negative = inhibition is reported as inconclusive: -2.23%.
With `c1ccc(-c2nc(N3CCOCC3)sc2-c2ccccc2)cc1` the lipid storage change, negative = inhibition was inconclusive: 43.1%.
In the case of `Cc1cc(C)cc(C(=O)NC(=S)Nc2ccc(Cc3ccncc3)cc2)c1`, the Potency is reported as inconclusive: 2.91 µM [activator, single point].
In the case of `Cc1ccnn2c(-c3ccccc3)c3c(=O)n(C)c(=O)n(C)c3c12`, the Potency is reported as inconclusive: 0.082 µM [activator, full curve, poor fit].
For `Brc1ccc(N=Cc2ccccn2)cc1`, the lipid storage change, negative = inhibition was inconclusive: -14%.
For `CC12CN(Cc3ccccc3)CC(C)(CN(Cc3ccccc3)C1)C2=O`, the lipid storage change, negative = inhibition was inconclusive: 31.9%.
For `CN1C2CCC1/C(=C/c1cccn1C)C(=O)/C2=C\c1cccn1C`, the Potency was inconclusive: 20.6 µM [activator, single point].
For `CC(C)Sc1nc(-c2ccccc2)cc(=O)[nH]1`, the lipid storage change, negative = inhibition was inconclusive: -40.5%.
For `CCNS(=O)(=O)c1ccc(CCC(=O)Nc2ccccc2C(=O)OC)cc1`, the lipid storage change, negative = inhibition was inconclusive: 19.9%.
For `Cc1cccc(NC(=O)CSc2nnnn2C2CCCC2)c1`, the lipid storage change, negative = inhibition was inconclusive: -187%.
In the case of `O=C(CSc1nnc(-c2ccco2)o1)c1ccccc1Cl`, the lipid storage change, negative = inhibition is reported as inconclusive: -62.9% [cytotoxic] [at 0.00295 µM].
With `COc1ccccc1NC(=O)c1ccc2nsnc2c1` the Potency was active: 3.66 µM.
For `COc1ccccc1NC(=O)N(Cc1cccs1)Cc1cc2cc3c(cc2[nH]c1=O)OCO3`, the Potency was inconclusive: 0.0052 µM [activator, full curve, poor fit].
For `CCN(CC)c1cccc(OCC(=O)N2c3ccccc3CC2C)c1` (stereo unspecified), the lipid storage change, negative = inhibition was inconclusive: -6.88%.
With `Cc1cc(C)c(OCCCCn2cnc3ccccc3c2=O)c(C)c1` the lipid storage change, negative = inhibition was inconclusive: -10.1%.
In the case of `Cn1c(=O)c2c(nc(NCC3CCCO3)n2C)n(C)c1=O` (stereo unspecified), the lipid storage change, negative = inhibition is reported as inconclusive: -26%.
With `Cc1cc(=O)oc2cc(OCC(=O)N3CCN(C(=O)C4COc5ccccc5O4)CC3)ccc12` (stereo unspecified) the Potency was inconclusive: 29.1 µM [falling, single point].
For `C=C(C)CNC(=S)NNC(=O)c1cc(C)oc1C`, the Potency was inconclusive: 2.06 µM [activator, full curve, poor fit].
With `Oc1ccccc1-c1nc(N2CCN(Cc3ccccc3)CC2)c2ccccc2n1` the Potency was inconclusive: 6.51 µM [activator, partial curve, poor fit].
In the case of `COc1ccc(/C=C/c2nc(-c3ccccc3O)n[nH]2)cc1OC`, the lipid storage change, negative = inhibition is reported as inconclusive: -26%.
